This note sets out measurements from paper PMC3937361.

No constants are given. Whether binding was seen depends on the method and setting. A result given as binding can be weak or reduced; the word gives no strength. For some of these results: Binding seen in cells or lysates may run through a third protein.

The target in one assay is PhoN2 (apyrase) bait encoded by pGBKT7/phoN2 (S. flexneri) (UniProt Q6XW11). Kind of assay: two-hybrid; yeast (S. cerevisiae AH109); bait pGBKT7/phoN2, prey cDNA library of S. flexneri M90T in pGADT7-Rec; selection on SD medium lacking leucine, tryptophan, histidine and adenine, 30°C, α-galactosidase assay.
For the substance “OmpA prey fragment 186-284 (from UniProt A0A2S4N3N0) (domain or fragment)”, the binding result is recorded as “binds”.

With “OmpA prey fragment 51-273 (from UniProt A0A2S4N3N0) (domain or fragment)”, the binding entry was “binds”.

Turning to “OmpA prey fragment 188-299 (from UniProt A0A2S4N3N0) (domain or fragment)”, the binding result was “binds”.

“OmpA prey fragment 189-276 (from UniProt A0A2S4N3N0) (domain or fragment)”: the binding entry is on record as “binds”.

On to “OmpA prey fragment 185-304 (from UniProt A0A2S4N3N0) (domain or fragment)”, for which the binding entry is listed as “binds”.

With “OmpA prey fragment 43-275 (from UniProt A0A2S4N3N0) (domain or fragment)”, the binding entry is given as “binds”.

With “OmpA prey fragment 72-277 (from UniProt A0A2S4N3N0) (domain or fragment)”, the binding result is “binds”.

The target in another assay is T1, outer membrane protein A (OmpA), endogenous in S. flexneri HND115 (S. flexneri (endogenous in HND115)).
T1 sequence: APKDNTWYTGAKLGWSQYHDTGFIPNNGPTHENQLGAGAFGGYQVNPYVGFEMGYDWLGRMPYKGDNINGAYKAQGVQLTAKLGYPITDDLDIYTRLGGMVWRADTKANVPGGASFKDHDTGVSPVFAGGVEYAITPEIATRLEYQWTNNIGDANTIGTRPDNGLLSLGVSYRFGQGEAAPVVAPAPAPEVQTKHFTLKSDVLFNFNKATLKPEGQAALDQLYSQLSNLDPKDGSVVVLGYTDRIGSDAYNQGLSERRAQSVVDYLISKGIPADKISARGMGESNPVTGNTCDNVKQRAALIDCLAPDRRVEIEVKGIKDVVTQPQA
Kind of assay: cross-linking; in vivo, 1% formaldehyde for 15 min at room temperature on S. flexneri HND115 or HND93 carrying the plasmids, PBS pH 6.8; samples heated at 37°C (cross-links kept) or 95°C (broken); blots with anti-HA and anti-OmpA.
“PhoN2-HA with the second proline of the 43PPPP46 motif changed to serine (pHND14_(PSPP)) (S. flexneri)”: the binding result was “binds”.

With “PhoN2-HA with the first proline of the 43PPPP46 motif changed to serine (pHND23_(SPPP)) (S. flexneri)”, the binding result is “binds”.

A further assay deals with T2, OmpA encoded by plasmid pOmpA (S. flexneri).
T2 sequence: T1 sequence
The assay is described as above.
In the case of “PhoN2-HA encoded by pHND10 (S. flexneri)”, the binding result is reported as “binds”.
